Results are given in words; binding and its absence hold for the method and conditions named. Binding seen in cells or lysates may run through a third protein. Here binding means that the protein was enriched with, or labelled near, the bait; the list need not be complete.

The assay addresses G5_(845-1508)-WT-TAP (human) (UniProt Q8TEQ6). As to the kind of experiment: affinity purification with mass spectrometry; G5_(845-1508)-TAP baits expressed in HEK293; TAP purification, in-gel trypsin digestion, LC-MS/MS, PEAKS; two biological replicates; at least two distinct peptides.

B1: endogenous Gemin5 protein (natural protein, human (endogenous in HEK293), UniProt Q8TEQ6 1-1508, looked up)
chain: MGQEPRTLPPSPNWYCARCSDAVPGGLFGFAARTSVFLVRVGPGAGESPGTPPFRVIGELVGHTERVSGFTFSHHPGQYNLCATSSDDGTVKIWDVETKTVVTEHALHQHTISTLHWSPRVKDLIVSGDEKGVVFCYWFNRNDSQHLFIEPRTIFCLTCSPHHEDLVAIGYKDGIVVIIDISKKGEVIHRLRGHDDEIHSIAWCPLPGEDCLSINQEETSEEAEITNGNAVAQAPVTKGCYLATGSKDQTIRIWSCSRGRGVMILKLPFLKRRGGGIDPTVKERLWLTLHWPSNQPTQLVSSCFGGELLQWDLTQSWRRKYTLFSASSEGQNHSRIVFNLCPLQTEDDKQLLLSTSMDRDVKCWDIATLECSWTLPSLGGFAYSLAFSSVDIGSLAIGVGDGMIRVWNTLSIKNNYDVKNFWQGVKSKVTALCWHPTKEGCLAFGTDDGKVGLYDTYSNKPPQISSTYHKKTVYTLAWGPPVPPMSLGGEGDRPSLALYSCGGEGIVLQHNPWKLSGEAFDINKLIRDTNSIKYKLPVHTEISWKADGKIMALGNEDGSIEIFQIPNLKLICTIQQHHKLVNTISWHHEHGSQPELSYLMASGSNNAVIYVHNLKTVIESSPESPVTITEPYRTLSGHTAKITSVAWSPHHDGRLVSASYDGTAQVWDALREEPLCNFRGHRGRLLCVAWSPLDPDCIYSGADDFCVHKWLTSMQDHSRPPQGKKSIELEKKRLSQPKAKPKKKKKPTLRTPVKLESIDGNEEESMKENSGPVENGVSDQEGEEQAREPELPCGLAPAVSREPVICTPVSSGFEKSKVTINNKVILLKKEPPKEKPETLIKKRKARSLLPLSTSLDHRSKEELHQDCLVLATAKHSRELNEDVSADVEERFHLGLFTDRATLYRMIDIEGKGHLENGHPELFHQLMLWKGDLKGVLQTAAERGELTDNLVAMAPAAGYHVWLWAVEAFAKQLCFQDQYVKAASHLLSIHKVYEAVELLKSNHFYREAIAIAKARLRPEDPVLKDLYLSWGTVLERDGHYAVAAKCYLGATCAYDAAKVLAKKGDAASLRTAAELAAIVGEDELSASLALRCAQELLLANNWVGAQEALQLHESLQGQRLVFCLLELLSRHLEEKQLSEGKSSSSYHTWNTGTEGPFVERVTAVWKSIFSLDTPEQYQEAFQKLQNIKYPSATNNTPAKQLLLHICHDLTLAVLSQQMASWDEAVQALLRAVVRSYDSGSFTIMQEVYSAFLPDGCDHLRDKLGDHQSPATPAFKSLEAFFLYGRLYEFWWSLSRPCPNSSVWVRAGHRTLSVEPSQQLDTASTEETDPETSQPEPNRPSELDLRLTEEGERMLSTFKELFSEKHASLQNSQRTVAEVQETLAEMIRQHQKSQLCKSTANGPDKNEPEVEAEQPLCSSQSQCKEEKNEPLSLPELTKRLTEANQRMAKFPESIKAWPFPDVLECCLVLLLIRSHFPGCLAQEMQQQAQELLQKYGNTKTYRRHCQTFCM
notes: Gemin5, human, full-length endogenous protein of HEK293 cells; also called full-length Gemin5; source: endogenous, HEK293 soluble cell extract
For the molecule B1, the binding result is “binds”.

Source of the values: PMC8989681, “Functional and structural deficiencies of Gemin5 variants associated with neurological disorders” (Life Science Alliance, 2022).
